Results as given in publication PMC7819943, “Rice protein-binding microarrays: a tool to detect cis-acting elements near promoter regions in rice”.
Some of the results follow.

Chains of the proteins cited; added tags and fusions are not shown.
UniProt Q0JBA9, entry or part of it: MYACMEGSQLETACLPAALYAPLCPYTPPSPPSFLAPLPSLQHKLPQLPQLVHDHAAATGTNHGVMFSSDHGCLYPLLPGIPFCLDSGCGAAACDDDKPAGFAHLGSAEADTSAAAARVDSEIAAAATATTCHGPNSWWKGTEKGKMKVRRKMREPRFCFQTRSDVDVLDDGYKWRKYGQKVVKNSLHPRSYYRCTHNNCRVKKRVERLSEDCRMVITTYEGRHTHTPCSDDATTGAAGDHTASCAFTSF

Each sequence was assayed against OsWRKY34 (Oryza sativa, UniProt Q0JBA9 1-250) (assay: protein-binding microarray (RPBM); PBS, 2% BSA, 51.3 ng/ul salmon testes DNA, 50 uM zinc acetate, 200 nM TF, 25 C, 1 h; high values mean tight binding). Details: protein: recombinant; tags: N-terminal polyhistidine and DsRed monomer fusion (pET32a); label: CyDye5-dUTP incorporated in the synthesized complementary strand; 3' TTTTT single-stranded linker to array surface; dsDNA, one strand shown.
How it was run: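 Binding signal here means per-feature fluorescence intensity in arbitrary units. The values were read on an Axon 4000B scanner after a custom Agilent array, double-stranded by primer extension with Cy5-dUTP, was incubated with 200 nM protein at 25 °C for 1 h in PBS with 2% BSA, salmon testes DNA and 50 µM zinc acetate, then washed. The proteins were transcription factors with an N-terminal polyhistidine tag and DsRed, expressed in E. coli BL21-CodonPlus and purified on Ni–NTA.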
For “CTACCCGCCTTCTTCTACTTCTACCACGCGCGTAGTTTCCCGGAGTCACCTAGTGCAG”, the binding signal was 8290 fluorescence intensity (a.u.). For “AGTGAACTACTTAGCGATCATCACTGCTATTTCACATGTACGGAGTCACCTAGTGCAG”, the binding signal was 9420 fluorescence intensity (a.u.). “TCCTCTTTCATTTTTCGTGTGCACGTTTTTCAAACGGCTACGGAGTCACCTAGTGCAG” was tested, and the binding signal was 9040 fluorescence intensity (a.u.). With “ATGCATCGCCAACTCCACTGCTCCATGTTGCTTCTGCGCCCGGAGTCACCTAGTGCAG” the binding signal was 8890 fluorescence intensity (a.u.). With “TTGATGGGTATTTGGGCCTTGGGCTGTTGTGTGTGTGTTTCGGAGTCACCTAGTGCAG” the binding signal was 12800 fluorescence intensity (a.u.). In the case of “AACAACACACCTCCTCTGCACTTGCTCCTTCTCTTCTTCTCGGAGTCACCTAGTGCAG”, the binding signal is reported as 9970 fluorescence intensity (a.u.). With “TTTGTTTGAACTTTTATTTTTCTTTTAAATCTTGCTTCTACGGAGTCACCTAGTGCAG” the binding signal was 8850 fluorescence intensity (a.u.). In the case of “TATTTCATTTTCCACGCGCACGTTTCCGAACTACTAAACGCGGAGTCACCTAGTGCAG”, the binding signal is reported as 8560 fluorescence intensity (a.u.). “TCAGTGTACTGTACCGTGGTTTTGGGCCTTCTGAGCTATGCGGAGTCACCTAGTGCAG” was tested, and the binding signal was 8560 fluorescence intensity (a.u.). For “CCCTAACACCCTCGCCGCCGCCGACCCATTCGCCGCCGCCCGGAGTCACCTAGTGCAG”, the binding signal was 8210 fluorescence intensity (a.u.). For “AGACATCATTTTTGCTACACTACAGTGCATTATTCCTAATCGGAGTCACCTAGTGCAG”, the binding signal was 8850 fluorescence intensity (a.u.). In the case of “GTATGCTTGTTGTACACAGTAATTCTGTCTCATGTAGCCTCGGAGTCACCTAGTGCAG”, the binding signal is reported as 9170 fluorescence intensity (a.u.). With “GAGCCGCGTCGAGTAGCATGTATGATTTCTGATATTGTACCGGAGTCACCTAGTGCAG” the binding signal was 8810 fluorescence intensity (a.u.). In the case of “AGGGAGGTTGGATTGTGTTGGTCGTGTCGAGTTGGTCTGTCGGAGTCACCTAGTGCAG”, the binding signal is reported as 9750 fluorescence intensity (a.u.). With “CGTTGTTTTTTTAGCGATTTTTCTGTTTTTTTCCTTTTTACGGAGTCACCTAGTGCAG” the binding signal was 9830 fluorescence intensity (a.u.). For “CACCCAACACAGATTATTCAACCCCTACCATGCCACTCTCCGGAGTCACCTAGTGCAG”, the binding signal was 8560 fluorescence intensity (a.u.). For “CGATTCGTGGCCACGCCAGATCGATCTCGCGGATAATTTTCGGAGTCACCTAGTGCAG”, the binding signal was 8440 fluorescence intensity (a.u.). For “AAACTCGAGCCTGATAAAACCACCTCCTAATCCATCCCCGCGGAGTCACCTAGTGCAG”, the binding signal was 8350 fluorescence intensity (a.u.). For “TAGCACACACACAAACACACATCATTTTGTTTACCAAACACGGAGTCACCTAGTGCAG”, the binding signal was 9550 fluorescence intensity (a.u.). For “GGGGTTAGGTTTGTCTCCTGTGGCTTGTTGATGCTTTGCTCGGAGTCACCTAGTGCAG”, the binding signal was 9950 fluorescence intensity (a.u.). For “TGAGGTGTTAGGGTTTGAGTGCTAGGTTGTTTGCTTGATGCGGAGTCACCTAGTGCAG”, the binding signal was 10100 fluorescence intensity (a.u.). “CCATTGGCCATTGCCATGCAAATGCAGTCTATAAAGATAACGGAGTCACCTAGTGCAG” was tested, and the binding signal was 9080 fluorescence intensity (a.u.). For “AGTCATCACAAGCATTCTTTTATCACTTCAACTTGTGGAACGGAGTCACCTAGTGCAG”, the binding signal was 8540 fluorescence intensity (a.u.). In the case of “ATCTCATCTCACCCCTACATAGTGGATCATGTACGTATCACGGAGTCACCTAGTGCAG”, the binding signal is reported as 9290 fluorescence intensity (a.u.). “ATGCGCTGTTCTTGCTATCCCTCTCGTCAGTTTGTGCCCTCGGAGTCACCTAGTGCAG” was tested, and the binding signal was 11300 fluorescence intensity (a.u.). In the case of “TCTCTTAGGCCTATTCGGTTCACGGGATTTCCCAATCACACGGAGTCACCTAGTGCAG”, the binding signal is reported as 8200 fluorescence intensity (a.u.). In the case of “CCGCTGCTGTTTTCTTTTCTTTTGTAAGTGTGTAACGTTACGGAGTCACCTAGTGCAG”, the binding signal is reported as 9400 fluorescence intensity (a.u.). “GGTTCATCTCCTATCTCTAGTTAGATATACAATTTACATGCGGAGTCACCTAGTGCAG” was tested, and the binding signal was 8270 fluorescence intensity (a.u.). “TCACCTACGTATCTCTTCGCTGCACTTTCTATTTTTTATACGGAGTCACCTAGTGCAG” was tested, and the binding signal was 15500 fluorescence intensity (a.u.). For “CCTCTGTATTTTGGCCTATACTTTCAGTTTGACCACTTACCGGAGTCACCTAGTGCAG”, the binding signal was 9140 fluorescence intensity (a.u.). With “CGTGTGGAGAGGATAGGGATATGAGTTTGTATTTGACCCTCGGAGTCACCTAGTGCAG” the binding signal was 8040 fluorescence intensity (a.u.). In the case of “AAAAAATCTTATCAGGTAACCGTACTTCTACCTGATTAGGCGGAGTCACCTAGTGCAG”, the binding signal is reported as 13000 fluorescence intensity (a.u.). In the case of “ACAGAGATTAGCTTCCAACACTATTAATTTCTCACCCCAACGGAGTCACCTAGTGCAG”, the binding signal is reported as 8410 fluorescence intensity (a.u.). In the case of “GACTATAGTGCCTTTGATTTTCCTGTCAGATCAACTCCTTCGGAGTCACCTAGTGCAG”, the binding signal is reported as 8190 fluorescence intensity (a.u.). “TCTGGCTTAGTTACTGTACAATTCATATCTACGTGCACTGCGGAGTCACCTAGTGCAG” was tested, and the binding signal was 8280 fluorescence intensity (a.u.). In the case of “GAGATTGGAAGCACCATTTGACATTACGCGCCTGATTCATCGGAGTCACCTAGTGCAG”, the binding signal is reported as 9310 fluorescence intensity (a.u.). “ACGAGCGCCCCACCACCATCTCATTCTTGCCTCCTCCAAACGGAGTCACCTAGTGCAG” was tested, and the binding signal was 9250 fluorescence intensity (a.u.). In the case of “GCTTTCTCTCTCTCTCTCTCTCACTTGTTCCCCAAGGCGACGGAGTCACCTAGTGCAG”, the binding signal is reported as 13000 fluorescence intensity (a.u.). “TATAGGAGTGAGTATATACACACTGCAGTGTTTGTTTTTTCGGAGTCACCTAGTGCAG” was tested, and the binding signal was 8320 fluorescence intensity (a.u.). For “ACCCTCCGCGCCCACGATCCCTTCTCTCTCTCTTGATCGACGGAGTCACCTAGTGCAG”, the binding signal was 8050 fluorescence intensity (a.u.). For “GCAGTTTTGGTGGCCCCAATGTTGACTCGCACTTTTTGTACGGAGTCACCTAGTGCAG”, the binding signal was 9710 fluorescence intensity (a.u.). With “TATGTGCTAAAAAGTCAACGGTGTCAAACATTTCGAAACGCGGAGTCACCTAGTGCAG” the binding signal was 14000 fluorescence intensity (a.u.).
